Experiment [1] concerns the target T1, AtMORC4 with a C-terminal FLAG or MYC epitope tag (pAtMORC4::AtMORC4-FLAG, pAtMORC4::AtMORC4-MYC) (Arabidopsis thaliana) (UniProt F4KAF2).
T1 sequence: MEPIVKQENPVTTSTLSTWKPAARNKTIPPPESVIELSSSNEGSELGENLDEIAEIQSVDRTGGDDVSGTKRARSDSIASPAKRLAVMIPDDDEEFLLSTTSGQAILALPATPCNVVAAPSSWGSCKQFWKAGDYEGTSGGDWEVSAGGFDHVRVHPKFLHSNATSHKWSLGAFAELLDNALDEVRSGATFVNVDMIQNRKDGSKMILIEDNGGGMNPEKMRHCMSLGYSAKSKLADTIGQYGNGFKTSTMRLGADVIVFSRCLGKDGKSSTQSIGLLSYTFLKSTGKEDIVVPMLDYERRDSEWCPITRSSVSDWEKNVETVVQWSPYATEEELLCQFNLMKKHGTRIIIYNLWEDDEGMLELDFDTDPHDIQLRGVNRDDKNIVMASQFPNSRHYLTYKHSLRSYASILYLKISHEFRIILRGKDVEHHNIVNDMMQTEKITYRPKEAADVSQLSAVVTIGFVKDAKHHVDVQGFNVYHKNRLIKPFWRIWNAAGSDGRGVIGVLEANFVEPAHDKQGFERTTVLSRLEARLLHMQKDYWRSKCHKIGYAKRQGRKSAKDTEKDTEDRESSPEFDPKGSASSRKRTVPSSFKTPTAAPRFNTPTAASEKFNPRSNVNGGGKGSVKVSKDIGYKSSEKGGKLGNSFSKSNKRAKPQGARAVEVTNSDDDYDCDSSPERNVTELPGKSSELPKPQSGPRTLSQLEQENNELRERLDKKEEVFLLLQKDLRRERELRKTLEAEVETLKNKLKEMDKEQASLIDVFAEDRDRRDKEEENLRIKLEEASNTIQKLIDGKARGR
In words: co-IP; F1 plants carrying a FLAG-tagged and a MYC-tagged transgene; M2 magnetic FLAG beads added to the supernatant; western blot with HRP-coupled FLAG-specific and MYC-specific antibodies. In general terms: A western blot detects proteins with antibodies after separation by electrophoresis.

The target of experiment [2] is AtMORC7 with a C-terminal FLAG or MYC epitope tag (pAtMORC7::AtMORC7-FLAG, pAtMORC7::AtMORC7-MYC) (Arabidopsis thaliana) (UniProt F4JRS4). Described as above.

No constants are given. Whether binding was seen depends on the method and setting. Binding seen in cells or lysates may run through a third protein. Some entries that bind do so weakly or less than the wild type. Sequences can lack the tags named with a protein.

Binding data for two molecules are collected here from publication PMC4865129.

B1: AtMORC4 with a C-terminal FLAG or MYC epitope tag (pAtMORC4::AtMORC4-FLAG, pAtMORC4::AtMORC4-MYC) (protein, UniProt F4KAF2 1-800)
chain: MEPIVKQENPVTTSTLSTWKPAARNKTIPPPESVIELSSSNEGSELGENLDEIAEIQSVDRTGGDDVSGTKRARSDSIASPAKRLAVMIPDDDEEFLLSTTSGQAILALPATPCNVVAAPSSWGSCKQFWKAGDYEGTSGGDWEVSAGGFDHVRVHPKFLHSNATSHKWSLGAFAELLDNALDEVRSGATFVNVDMIQNRKDGSKMILIEDNGGGMNPEKMRHCMSLGYSAKSKLADTIGQYGNGFKTSTMRLGADVIVFSRCLGKDGKSSTQSIGLLSYTFLKSTGKEDIVVPMLDYERRDSEWCPITRSSVSDWEKNVETVVQWSPYATEEELLCQFNLMKKHGTRIIIYNLWEDDEGMLELDFDTDPHDIQLRGVNRDDKNIVMASQFPNSRHYLTYKHSLRSYASILYLKISHEFRIILRGKDVEHHNIVNDMMQTEKITYRPKEAADVSQLSAVVTIGFVKDAKHHVDVQGFNVYHKNRLIKPFWRIWNAAGSDGRGVIGVLEANFVEPAHDKQGFERTTVLSRLEARLLHMQKDYWRSKCHKIGYAKRQGRKSAKDTEKDTEDRESSPEFDPKGSASSRKRTVPSSFKTPTAAPRFNTPTAASEKFNPRSNVNGGGKGSVKVSKDIGYKSSEKGGKLGNSFSKSNKRAKPQGARAVEVTNSDDDYDCDSSPERNVTELPGKSSELPKPQSGPRTLSQLEQENNELRERLDKKEEVFLLLQKDLRRERELRKTLEAEVETLKNKLKEMDKEQASLIDVFAEDRDRRDKEEENLRIKLEEASNTIQKLIDGKARGR
In the case of B1, in experiment [1], the binding entry was “binds”.

B2: AtMORC7 with a C-terminal FLAG or MYC epitope tag (pAtMORC7::AtMORC7-FLAG, pAtMORC7::AtMORC7-MYC) (protein, UniProt F4JRS4 1-707)
chain: MDNSIHVKREIQLPSTSPAGFPGRESVTVVDLCSSDDDSDIGEVAGGLEKVGNNFVGLKRGRDTFGGSSEVDRNNVKKVTTLAELGVGLPEGFGQSNPPESLTHPIPANPCNVFRPVPPPPPPPYAGTSGKIGGCKQFWKAGDYEGAAGDNWDLSSGGFDHVRVHPKFLHSNATSHKWALGAFAELLDNALDEVASGATYVKVDMLENNKGGNRMLLIEDNGGGMDPEKMRQCMSLGYSAKSKLANTIGQYGNGFKTSTMRLGADVIVFSRCPGKDGKSSTQSIGLLSYTFLRSTGKEDIVVPMLDYERRDPEWSKIIRSSTRDWDKNVETIIQWSPFSSEEDLLHQFDLMKDRGTRIIIYNLWEDDQGMLELDFDADPYDIQLRGVNREERNIKMASQFPNSRHFLTYKHSLRSYVSILYLRIPPGFRIILRGIDVEHHSVVNDMMQTEQITYRPQSESYGVVTNMSAIVIIGFVKDAKHHVDVQGFNVYHKNRLIKPFWRIWNATGSDGRGVIGVLEANFVEPAHDKQGFERTTVLARLESRLVQMQKTYWSTNCHKIGYAPRRREKSAYGYDNRDSSPENDREGPSSIKTPTPASDKFYSSSYPNHNGDNGVSGKDGARLQEELRREKERRKALEVEVQLSRQKIEEMKKEQENLIEIFSEERDRRDGEEEVLRNKLEEASNTIDDLLNKIKKMEGSKVPSWRH
For the molecule B2, the binding result is listed as “binds” in experiment [2] and “no binding” in experiment [1].
